The other results are listed elsewhere or left out.

The chains behind the UniProt entries cited, without tags or fusion partners. Where a name states a change or a piece, a line headed by the entry shows the natural chain unless it says otherwise.
UniProt Q7Z3E2: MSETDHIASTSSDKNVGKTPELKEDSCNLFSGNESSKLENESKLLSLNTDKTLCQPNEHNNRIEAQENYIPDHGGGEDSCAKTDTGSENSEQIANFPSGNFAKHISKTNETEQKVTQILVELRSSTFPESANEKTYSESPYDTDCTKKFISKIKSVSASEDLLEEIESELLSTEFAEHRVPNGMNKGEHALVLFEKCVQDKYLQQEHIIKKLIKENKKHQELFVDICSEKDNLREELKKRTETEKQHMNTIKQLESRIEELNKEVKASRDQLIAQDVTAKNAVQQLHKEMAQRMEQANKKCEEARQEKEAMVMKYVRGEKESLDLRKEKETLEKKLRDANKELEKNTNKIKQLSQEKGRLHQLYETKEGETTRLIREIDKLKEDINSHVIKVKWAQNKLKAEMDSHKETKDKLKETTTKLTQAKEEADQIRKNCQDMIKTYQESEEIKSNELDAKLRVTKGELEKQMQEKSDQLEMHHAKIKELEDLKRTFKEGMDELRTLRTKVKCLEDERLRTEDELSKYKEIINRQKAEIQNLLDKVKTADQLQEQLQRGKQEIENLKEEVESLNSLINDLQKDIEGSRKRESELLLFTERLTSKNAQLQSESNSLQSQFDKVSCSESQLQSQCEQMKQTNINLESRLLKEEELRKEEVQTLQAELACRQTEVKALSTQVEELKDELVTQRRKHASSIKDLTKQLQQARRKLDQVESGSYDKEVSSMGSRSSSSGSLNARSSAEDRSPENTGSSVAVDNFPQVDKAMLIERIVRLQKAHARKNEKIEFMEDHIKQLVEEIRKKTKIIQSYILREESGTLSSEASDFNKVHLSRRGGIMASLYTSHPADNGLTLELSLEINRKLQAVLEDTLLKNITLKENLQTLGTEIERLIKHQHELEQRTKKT
UniProt Q6YHK3: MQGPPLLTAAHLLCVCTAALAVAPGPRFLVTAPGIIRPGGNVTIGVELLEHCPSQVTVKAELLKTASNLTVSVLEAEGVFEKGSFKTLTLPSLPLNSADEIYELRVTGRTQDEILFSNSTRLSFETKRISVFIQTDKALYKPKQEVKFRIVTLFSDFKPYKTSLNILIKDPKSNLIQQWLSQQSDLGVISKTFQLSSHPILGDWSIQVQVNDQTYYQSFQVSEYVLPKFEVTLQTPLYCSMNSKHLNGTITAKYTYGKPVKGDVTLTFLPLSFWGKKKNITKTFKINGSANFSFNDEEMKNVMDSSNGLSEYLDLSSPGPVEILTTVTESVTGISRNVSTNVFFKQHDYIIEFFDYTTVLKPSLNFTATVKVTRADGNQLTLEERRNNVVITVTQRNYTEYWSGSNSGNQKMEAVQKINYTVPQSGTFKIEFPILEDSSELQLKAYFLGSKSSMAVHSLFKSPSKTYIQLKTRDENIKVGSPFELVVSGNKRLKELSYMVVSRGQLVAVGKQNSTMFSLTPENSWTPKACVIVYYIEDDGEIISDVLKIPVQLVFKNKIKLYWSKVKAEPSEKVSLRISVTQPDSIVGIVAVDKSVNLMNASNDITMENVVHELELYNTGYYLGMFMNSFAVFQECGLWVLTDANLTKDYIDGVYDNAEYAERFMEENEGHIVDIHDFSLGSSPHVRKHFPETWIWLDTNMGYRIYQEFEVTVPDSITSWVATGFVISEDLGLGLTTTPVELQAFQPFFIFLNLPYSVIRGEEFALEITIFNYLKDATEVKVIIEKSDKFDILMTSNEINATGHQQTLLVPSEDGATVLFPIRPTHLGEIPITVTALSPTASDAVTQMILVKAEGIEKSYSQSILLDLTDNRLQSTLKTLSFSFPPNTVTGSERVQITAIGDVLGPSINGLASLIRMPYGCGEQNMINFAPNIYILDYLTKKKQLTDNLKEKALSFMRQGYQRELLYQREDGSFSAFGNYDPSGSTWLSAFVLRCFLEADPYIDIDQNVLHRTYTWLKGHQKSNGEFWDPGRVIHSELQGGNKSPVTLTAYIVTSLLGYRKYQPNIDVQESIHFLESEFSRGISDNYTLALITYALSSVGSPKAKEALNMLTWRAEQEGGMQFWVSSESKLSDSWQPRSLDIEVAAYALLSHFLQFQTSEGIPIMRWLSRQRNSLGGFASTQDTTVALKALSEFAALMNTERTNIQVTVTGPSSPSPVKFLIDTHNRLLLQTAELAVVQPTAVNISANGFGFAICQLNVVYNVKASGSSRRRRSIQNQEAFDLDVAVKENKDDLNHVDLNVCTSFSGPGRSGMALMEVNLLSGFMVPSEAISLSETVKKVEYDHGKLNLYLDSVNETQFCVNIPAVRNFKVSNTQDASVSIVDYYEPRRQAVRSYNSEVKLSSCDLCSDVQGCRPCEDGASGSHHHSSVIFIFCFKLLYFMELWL
UniProt O43439: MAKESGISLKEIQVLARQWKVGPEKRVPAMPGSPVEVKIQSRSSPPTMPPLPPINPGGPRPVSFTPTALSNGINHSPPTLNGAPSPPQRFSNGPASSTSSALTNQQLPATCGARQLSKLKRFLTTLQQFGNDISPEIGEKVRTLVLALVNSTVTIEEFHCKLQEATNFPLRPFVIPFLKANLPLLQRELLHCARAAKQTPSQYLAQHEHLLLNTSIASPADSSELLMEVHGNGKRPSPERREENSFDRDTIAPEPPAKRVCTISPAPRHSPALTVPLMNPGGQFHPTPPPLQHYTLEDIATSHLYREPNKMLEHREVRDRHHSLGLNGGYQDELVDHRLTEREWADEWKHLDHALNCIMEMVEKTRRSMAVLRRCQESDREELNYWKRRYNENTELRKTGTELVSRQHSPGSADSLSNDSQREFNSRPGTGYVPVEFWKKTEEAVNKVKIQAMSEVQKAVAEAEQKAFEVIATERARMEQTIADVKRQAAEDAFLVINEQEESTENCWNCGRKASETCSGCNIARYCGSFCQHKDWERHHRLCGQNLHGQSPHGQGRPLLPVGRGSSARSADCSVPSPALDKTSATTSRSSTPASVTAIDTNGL
UniProt Q8ND76: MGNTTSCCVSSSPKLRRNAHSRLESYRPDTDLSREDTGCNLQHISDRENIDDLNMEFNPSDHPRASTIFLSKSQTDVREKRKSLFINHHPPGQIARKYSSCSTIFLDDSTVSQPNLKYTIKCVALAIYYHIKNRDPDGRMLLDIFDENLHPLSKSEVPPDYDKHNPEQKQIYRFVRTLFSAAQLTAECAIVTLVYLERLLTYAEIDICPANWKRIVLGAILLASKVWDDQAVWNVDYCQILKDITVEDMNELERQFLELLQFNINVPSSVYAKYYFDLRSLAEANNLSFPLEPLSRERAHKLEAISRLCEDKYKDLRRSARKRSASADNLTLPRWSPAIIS
UniProt Q5M9N0: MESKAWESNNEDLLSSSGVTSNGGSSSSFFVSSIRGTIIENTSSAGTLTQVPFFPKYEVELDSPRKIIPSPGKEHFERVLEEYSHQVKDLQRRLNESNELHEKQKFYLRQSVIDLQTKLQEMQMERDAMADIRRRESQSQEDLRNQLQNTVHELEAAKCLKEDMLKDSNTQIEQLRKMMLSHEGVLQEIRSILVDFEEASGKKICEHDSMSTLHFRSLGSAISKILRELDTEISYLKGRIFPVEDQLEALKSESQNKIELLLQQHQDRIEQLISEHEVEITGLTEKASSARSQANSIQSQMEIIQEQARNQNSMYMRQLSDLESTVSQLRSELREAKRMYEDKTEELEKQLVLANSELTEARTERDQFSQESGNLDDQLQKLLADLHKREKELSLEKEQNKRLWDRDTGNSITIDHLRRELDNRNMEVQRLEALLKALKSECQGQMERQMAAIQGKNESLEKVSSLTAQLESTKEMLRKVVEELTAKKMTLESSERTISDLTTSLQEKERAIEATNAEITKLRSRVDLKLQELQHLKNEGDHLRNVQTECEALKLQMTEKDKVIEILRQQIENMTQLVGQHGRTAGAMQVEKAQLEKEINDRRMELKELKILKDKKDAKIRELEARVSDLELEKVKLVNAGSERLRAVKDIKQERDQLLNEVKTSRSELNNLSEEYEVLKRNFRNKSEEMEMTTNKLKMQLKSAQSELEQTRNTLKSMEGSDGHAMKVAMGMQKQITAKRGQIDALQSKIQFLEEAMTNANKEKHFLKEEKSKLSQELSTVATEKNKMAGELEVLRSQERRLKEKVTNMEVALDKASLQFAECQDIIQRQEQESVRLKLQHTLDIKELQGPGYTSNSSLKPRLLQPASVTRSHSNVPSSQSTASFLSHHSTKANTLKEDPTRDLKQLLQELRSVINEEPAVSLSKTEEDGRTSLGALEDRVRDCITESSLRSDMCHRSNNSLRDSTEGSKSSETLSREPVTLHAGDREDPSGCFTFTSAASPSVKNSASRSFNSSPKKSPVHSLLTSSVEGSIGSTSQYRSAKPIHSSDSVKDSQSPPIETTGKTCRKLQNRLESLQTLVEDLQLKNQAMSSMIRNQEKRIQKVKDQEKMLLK
UniProt Q8N350: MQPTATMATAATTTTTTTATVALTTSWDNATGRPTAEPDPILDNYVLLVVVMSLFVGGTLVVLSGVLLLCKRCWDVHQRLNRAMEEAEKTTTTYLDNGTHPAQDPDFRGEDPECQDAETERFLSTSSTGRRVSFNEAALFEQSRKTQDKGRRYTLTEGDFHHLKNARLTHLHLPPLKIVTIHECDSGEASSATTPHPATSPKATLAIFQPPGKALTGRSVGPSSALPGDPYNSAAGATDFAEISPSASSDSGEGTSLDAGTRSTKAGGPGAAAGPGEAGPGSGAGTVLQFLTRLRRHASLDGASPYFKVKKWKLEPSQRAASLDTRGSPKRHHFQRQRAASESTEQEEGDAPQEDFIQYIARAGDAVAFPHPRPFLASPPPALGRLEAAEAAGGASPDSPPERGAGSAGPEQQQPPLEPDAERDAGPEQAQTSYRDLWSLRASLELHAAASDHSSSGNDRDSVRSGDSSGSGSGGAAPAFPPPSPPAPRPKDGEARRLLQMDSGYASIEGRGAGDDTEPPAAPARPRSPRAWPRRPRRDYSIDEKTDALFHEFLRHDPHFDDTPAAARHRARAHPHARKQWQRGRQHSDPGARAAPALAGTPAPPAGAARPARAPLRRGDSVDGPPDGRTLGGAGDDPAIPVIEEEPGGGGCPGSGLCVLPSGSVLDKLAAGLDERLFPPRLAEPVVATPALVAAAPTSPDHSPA
UniProt P27701: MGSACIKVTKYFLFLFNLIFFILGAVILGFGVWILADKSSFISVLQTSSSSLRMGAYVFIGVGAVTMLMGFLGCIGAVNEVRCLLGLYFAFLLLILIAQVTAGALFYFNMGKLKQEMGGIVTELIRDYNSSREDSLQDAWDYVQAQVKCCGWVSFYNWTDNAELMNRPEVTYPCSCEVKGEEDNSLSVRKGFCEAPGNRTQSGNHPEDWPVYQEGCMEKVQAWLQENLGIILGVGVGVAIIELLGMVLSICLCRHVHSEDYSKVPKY
UniProt Q07108: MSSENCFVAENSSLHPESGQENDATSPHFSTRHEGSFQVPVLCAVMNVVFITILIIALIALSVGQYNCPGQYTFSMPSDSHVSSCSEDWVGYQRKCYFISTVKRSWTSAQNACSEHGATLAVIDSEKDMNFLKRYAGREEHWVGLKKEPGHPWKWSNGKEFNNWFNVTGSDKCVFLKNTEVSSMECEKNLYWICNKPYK
UniProt P21926: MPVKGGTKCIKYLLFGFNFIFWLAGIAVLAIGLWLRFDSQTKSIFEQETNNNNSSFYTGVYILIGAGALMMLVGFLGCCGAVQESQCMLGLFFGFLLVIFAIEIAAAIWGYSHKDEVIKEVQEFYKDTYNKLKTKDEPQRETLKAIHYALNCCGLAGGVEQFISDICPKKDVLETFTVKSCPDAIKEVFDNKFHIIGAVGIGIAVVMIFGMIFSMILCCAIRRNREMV
UniProt P55210: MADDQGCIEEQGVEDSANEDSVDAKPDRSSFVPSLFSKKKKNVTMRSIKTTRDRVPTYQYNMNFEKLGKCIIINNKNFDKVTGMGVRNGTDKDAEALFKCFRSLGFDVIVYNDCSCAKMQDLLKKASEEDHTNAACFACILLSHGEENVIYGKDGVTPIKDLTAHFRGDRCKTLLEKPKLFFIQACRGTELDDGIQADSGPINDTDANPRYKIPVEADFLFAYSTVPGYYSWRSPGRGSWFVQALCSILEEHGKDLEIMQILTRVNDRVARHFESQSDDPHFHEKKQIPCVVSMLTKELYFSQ
UniProt P11049: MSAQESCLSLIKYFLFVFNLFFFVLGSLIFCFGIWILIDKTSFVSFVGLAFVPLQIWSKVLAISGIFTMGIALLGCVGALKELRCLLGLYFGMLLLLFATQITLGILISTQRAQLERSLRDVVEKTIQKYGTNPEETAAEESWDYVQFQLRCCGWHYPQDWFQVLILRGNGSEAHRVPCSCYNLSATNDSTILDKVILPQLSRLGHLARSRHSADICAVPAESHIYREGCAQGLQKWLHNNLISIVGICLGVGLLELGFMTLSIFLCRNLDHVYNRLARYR
UniProt P51636: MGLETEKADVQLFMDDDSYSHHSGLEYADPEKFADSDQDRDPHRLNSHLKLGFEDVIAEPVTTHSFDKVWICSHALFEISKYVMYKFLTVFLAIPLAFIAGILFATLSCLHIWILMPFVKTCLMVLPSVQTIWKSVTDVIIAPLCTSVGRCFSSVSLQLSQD

Compound in the experiment: CCn1cc(-c2ccnc3[nH]c(-c4cccc(CN(C)C)c4)cc23)c(-c2ccc(NC(=O)N(C)C)cc2)n1
Description: log2 fold change, soluble protein after heating vs DMSO (PISA); higher = thermal stabilisation; K562 cells, 10 uM, 30 min; active = over 0.2 and 3.5 SD of the protein, either way, in both replicates (recomputed). An outline of the steps:
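Quantification of soluble protein used TMTpro 16plex LC-MS/MS, with channel sums equalised. Samples were the supernatant after 21,000xg for 90 min of pooled aliquots from K562 cells (2×10^6 cells/mL) treated with 10 μM compound for 30 min, heated for 3 min over 48°C-58°C, and extracted in PBS with 0.5% NP-40 at 4°C. Values, from duplicates, describe thermal stability against control samples on a log2 fold-change scale.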
As to CCNE1 (UniProt P24864), the log2 fold change was inactive: -0.07.
The value for CCNDBP1 (UniProt O95273) was inactive: -0.036; that for CCDC186 (UniProt Q7Z3E2) was inactive: 0.089; that for CD109 (UniProt Q6YHK3) was inactive: -0.01.
The value for CD99L2 isoform 5 (UniProt Q8TCZ2) was inactive: 0.036.
With CCDC66 (UniProt A2RUB6), the log2 fold change is inactive: 0.04.
For CCDC187, A0A1W2PQX5 the value was inactive: -0.03; for CBFA2T2 isoform 4 (UniProt O43439), inactive: -0.178; for CCNY (UniProt Q8ND76), inactive: 0.171.
With CD276 (UniProt Q5ZPR3), the log2 fold change was inactive: -0.025.
For CCDC158 (UniProt Q5M9N0) the value was inactive: 0.06; for CBARP (UniProt Q8N350), inactive: -0.058; for CD82 (UniProt P27701), inactive: -0.11.
For CCNYL1 (UniProt Q8N7R7) the value was inactive: 0.019; for CCNC (UniProt P24863), inactive: -0.178.
For CDC20 (UniProt Q12834) the value was inactive: -0.025.
CD69 (UniProt Q07108): the log2 fold change was inactive: 0.021.
The value for CD9 (UniProt P21926) was inactive: -0.389; that for CASP7 isoform 3 (UniProt P55210) was inactive: -0.569; that for CD37 (UniProt P11049) was inactive: 0.
The value for CAV2 (UniProt P51636) was inactive: -0.036; that for CCDC28B (UniProt Q9BUN5) was inactive: -0.01.
